Assay [1] addresses HA1 adenosine receptor (Homo sapiens, UniProt P30542). The experiment in a line: Human adenosine A1 receptor affinity (Ki hA1). The note with it: read-out: Ki HA1; affinity to human adenosine A1 receptor. The format is binding.
The target in assay [2] is human adenosine A2A receptor (Homo sapiens, UniProt P29274). Kind of assay: Human adenosine A2A receptor [3H]-SCH-58261 binding assay. The note with it: for selectivity (A1/A2a): calculated ratio of the affinity to the HA1 receptor to the HA2a receptor; for Ki: read-out: Ki HA2A, affinity to human adenosine A2A receptor.

By UniProt entry, the sequences of proteins in these tests, tags left out.
UniProt P30542, whole entry: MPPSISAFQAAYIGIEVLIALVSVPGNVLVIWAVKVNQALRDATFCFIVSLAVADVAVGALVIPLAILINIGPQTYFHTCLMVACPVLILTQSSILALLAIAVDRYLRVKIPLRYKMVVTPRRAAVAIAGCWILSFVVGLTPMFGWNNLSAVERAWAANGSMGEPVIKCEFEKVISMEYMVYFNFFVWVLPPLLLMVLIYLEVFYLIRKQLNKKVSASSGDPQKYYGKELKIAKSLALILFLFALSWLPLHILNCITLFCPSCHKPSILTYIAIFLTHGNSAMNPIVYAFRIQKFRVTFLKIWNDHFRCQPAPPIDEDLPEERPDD

Structures were worked out from names or drawings and are uncertain.

In the case of `Nc1cc(C(=O)NCc2ccccc2Br)cc2nc(-c3ccc(Cl)o3)nn12`, the Ki in assay [1] amounted to 70.6 nM. For the same molecule, in assay [2], the selectivity (A1/A2a) was 2.7 and the Ki turned out to be 26.5 nM.
Taken in the same sequence, the figures for `Nc1cc(C(=O)NCc2ccccc2Cl)cc2nc(-c3ccc(Cl)o3)nn12` were 91.2 nM, 2.5 and 35.8 nM.
Taken in the same sequence, the figures for `CCN(C)C(=O)c1cc(N)n2nc(-c3nccs3)nc2c1` were 6060 nM, 38.6 and 157 nM.

What is called Ki is a dissociation constant, usually derived from enzyme kinetics or from competition with a known ligand.

The record behind these values is US6506772B1, “Substituted [1,2,4]triazolo[1,5a]pyridine derivatives with activity as adenosine receptor ligands” (Hoffmann-La Roche Inc., priority 2000, dated 2003).
